# Patent publication US20080255134A1 (Artesian Therapeutics, Inc., priority 2004, published 2008)
# Amino acid sequences for entries named in this document (tags omitted). A change or cut given only in a name is not applied to a line headed by its entry.
# UniProt Q14432: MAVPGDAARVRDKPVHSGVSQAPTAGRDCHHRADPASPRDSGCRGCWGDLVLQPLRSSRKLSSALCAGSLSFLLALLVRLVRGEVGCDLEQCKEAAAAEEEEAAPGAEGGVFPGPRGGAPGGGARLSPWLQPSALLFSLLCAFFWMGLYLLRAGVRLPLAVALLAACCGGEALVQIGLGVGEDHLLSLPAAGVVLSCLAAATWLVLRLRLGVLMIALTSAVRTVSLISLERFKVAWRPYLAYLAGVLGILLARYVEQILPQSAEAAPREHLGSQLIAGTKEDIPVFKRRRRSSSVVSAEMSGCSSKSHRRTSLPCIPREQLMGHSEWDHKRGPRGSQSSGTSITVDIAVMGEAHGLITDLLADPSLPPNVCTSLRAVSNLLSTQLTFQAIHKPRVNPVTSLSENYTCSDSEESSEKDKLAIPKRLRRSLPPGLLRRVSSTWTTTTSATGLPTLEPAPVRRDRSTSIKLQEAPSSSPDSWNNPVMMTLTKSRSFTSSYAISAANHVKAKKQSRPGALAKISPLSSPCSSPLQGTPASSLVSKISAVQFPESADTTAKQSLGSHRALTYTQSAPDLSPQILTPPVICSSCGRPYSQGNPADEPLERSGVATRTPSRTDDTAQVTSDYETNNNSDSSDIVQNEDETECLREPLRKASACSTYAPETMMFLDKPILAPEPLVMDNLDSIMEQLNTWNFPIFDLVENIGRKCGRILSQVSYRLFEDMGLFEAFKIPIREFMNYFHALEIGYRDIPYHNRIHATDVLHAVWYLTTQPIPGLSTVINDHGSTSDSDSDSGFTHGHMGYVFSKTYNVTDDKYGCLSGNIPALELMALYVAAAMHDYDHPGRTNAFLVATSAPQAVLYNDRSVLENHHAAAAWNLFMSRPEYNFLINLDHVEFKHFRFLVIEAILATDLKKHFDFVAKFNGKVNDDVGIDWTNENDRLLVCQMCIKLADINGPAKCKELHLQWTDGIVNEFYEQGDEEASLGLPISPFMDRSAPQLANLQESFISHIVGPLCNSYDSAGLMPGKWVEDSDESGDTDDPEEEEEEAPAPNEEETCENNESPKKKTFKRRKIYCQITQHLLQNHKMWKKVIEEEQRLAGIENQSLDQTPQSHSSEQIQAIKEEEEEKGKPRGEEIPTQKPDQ
# Some results were stated once for a whole list of compounds, not compound by compound. For some assays here: At least one structure is not confirmed: it was looked up by name or label, or the drawing left a doubt.
# Target: T1, PDE3 (Homo sapiens, UniProt Q14432)
# T1 construct: from tissue; host or cells: human platelets
# Test: In vitro assay for cAMP PDE-3 inhibitory activity
# Format: biochemical
# Settings: human platelet cyclic AMP phosphodiesterase; bound stated; read-out: PDE3 inhibition IC50
# Protocol: Human platelet cyclic AMP phosphodiesterase was prepared according to the method of Alvarez et al., Mol. Pharmacol. 29: 554 (1986). The PDE incubation medium contained 10 mM Tris-HCl buffer, pH 7.7, 10 mM MgSO4, and 1 μM […] (0.2 μCi) in a total volume of 1.0 mL. Test compounds were dissolved in DMSO immediately prior to addition to the incubation medium, and the resulting mixture was allowed to stand for 10 minutes prior to the addition of enzyme. Following the addition of PDE, the contents were mixed and incubated for 10 minutes at 30° C. Three assays each were performed for each of five test compound concentrations, the mean of the determinations (n=3) at each concentration was plotted, and IC50 values were determined graphically.
# The ability of Compounds 25 and 8c to inhibit PDE3 and β-adrenergic receptor activity was examined both in vitro and in vivo. […] Non-selective β-adrenergic and β1-adrenergic radioligand binding assays were performed using rat cortical membranes; β2-adrenergic receptor assays were performed using membranes isolated from CHO cells expressing human, recombinant b2-adrenergic receptor; non-selective α1-adrenergic receptor assays were performed using rat forebrain membranes; and PDE3 binding assays were performed on human platelets. Values in percent illustrate percent inhibition at 1000 nM concentration.
row,Compound,IC50 [µM]
1,"6-[4-(2-{4-[3-(9H-Carbazol-4-yloxy)-2-hydroxy-propylamino]-piperidin-1-yl}-2-oxo-ethoxy)-3-chloro-phenyl]-4,5-dihydro-2H-pyridazin-3-one [Compound 68]",< 1
2,"O=C1CCC(c2ccc(OCCCNCC(O)COc3cccc4[nH]c5ccccc5c34)c(Cl)c2)=NN1 (centres unmarked) [Compound 69, 6-(4-{3-[3-(9H-Carbazol-4-yloxy)-2-hydroxy-propylamino]-propoxy}-3-chloro-phenyl)-4,5-dihydro-2H-pyridazin-3-one]",< 1

# Same assay, conditions: human platelet cyclic AMP phosphodiesterase; bound stated; read-out: PDE IC50 inhibition values
row,Compound,IC50 [µM]
1,"O=C1CCC(c2ccc(OCCCNCC(O)COc3cccc4[nH]c5ccccc5c34)c(Cl)c2)=NN1 (centres unmarked) [Compound 69, 6-(4-{3-[3-(9H-Carbazol-4-yloxy)-2-hydroxy-propylamino]-propoxy}-3-chloro-phenyl)-4,5-dihydro-2H-pyridazin-3-one]",< 0.1

# Target: beta-receptors from rat cortical membranes
# Test: Non-specific β-receptor radioligand binding, [3H]DHA
# Settings: bound stated
# Protocol: Non-selective β-adrenergic and β1-adrenergic radioligand binding assays were performed using rat cortical membranes; β2-adrenergic receptor assays were performed using membranes isolated from CHO cells expressing human, recombinant b2-adrenergic receptor; non-selective α1-adrenergic receptor assays were performed using rat forebrain membranes; and PDE3 binding assays were performed on human platelets. Values in percent illustrate percent inhibition at 1000 nM concentration.
row,Compound,IC50 [µM]
1,"COCCc1ccc(OCC(O)CNC2CCN(C(=O)COc3ccc(C4=NNC(=O)CC4)cc3Cl)CC2)cc1 (racemic) [Compound 13, 6-{3-Chloro-4-[2-(4-{2-hydroxy-3-[4-(2-methoxy-ethyl)-phenoxy]-propylamino}-piperidin-1-yl)-2-oxo-ethoxy]-phenyl}-4,5-dihydro-2H-pyridazin-3-one]",< 1
2,"O=C1CCC(c2ccc(OCC(=O)N3CCC(NC[C@H](O)COc4ccccc4)CC3)c(Cl)c2)=NN1 [Compound 8a, 6-(3-chloro-4-{2-[4-(2-hydroxy-3-phenoxy-propylamino)-piperidin-1-yl]-2-oxo-ethoxy}-phenyl)-4,5-dihydro-2H-pyridazin-3-one]",< 1
3,"N#Cc1ccccc1OC[C@@H](O)CNC1CCN(C(=O)COc2ccc(C3=NNC(=O)CC3)cc2Cl)CC1 [Compound 8e, 2-[3-(1-{2-[2-chloro-4-(6-oxo-1,4,5,6-tetrahydro-pyridazin-3-yl)-phenoxy]-acetyl}-piperidin-4-ylamino)-2-hydroxy-propoxy]-benzonitrile]",< 1
4,"N#Cc1cccc(OC[C@@H](O)CNC2CCN(C(=O)COc3ccc(C4=NNC(=O)CC4)cc3Cl)CC2)c1 [Compound 8m, 3-[3-(1-{2-[2-chloro-4-(6-oxo-1,4,5,6-tetrahydro-pyridazin-3-yl)-phenoxy]-acetyl}-piperidin-4-ylamino)-2-hydroxy-propoxy]-benzonitrile]",< 1
5,"O=C1CCC(c2ccc(OCC(=O)N3CCC(NC[C@H](O)COc4ccc5c(c4)[nH]c4ccccc45)CC3)c(Cl)c2)=NN1 [Compound 33, 6-[4-(2-{4-[(S)-3-(9H-Carbazol-2-yloxy)-2-hydroxy-propylamino]-piperidin-1-yl}-2-oxo-ethoxy)-3-chloro-phenyl]-4,5-dihydro-2H-pyridazin-3-one]",< 1
6,COCCc1ccc(OC[C@@H](O)CNCCCOc2ccc(C3=NNC(=O)CC3)cc2Cl)cc1 [Compound 36],< 1
7,"COCCc1ccc(OC[C@@H](O)CNCCOc2ccc(C3=NNC(=O)CC3)cc2Cl)cc1 [Compound 41, 6-[3-Chloro-4-(3-{(S)-2-hydroxy-propylamino]-ethoxy}-phenyl)-4,5-dihydro-2H-pyridazin-3-one]",< 1
8,COCCc1ccc(OC[C@@H](O)CNCCCCCOc2ccc(C3=NNC(=O)CC3)cc2Cl)cc1 [Compound 46],< 1
